Laboratory results as given in PubChem BioAssay AID493014 (National Center for Advancing Translational Sciences (NCATS), 2011).
Hit rate of the full screen: of about 340,000 compounds, about 170 (0.05%) were called active. The inconclusive results got no clear call from the source; some entries with a clear call stand among them for comparison. Calls follow the shape of the dose curve; as a rule, active = well fitted inhibition curve with a large enough effect in the signal ratio, with a control signal flat (not every such curve was filed as active); inconclusive = small, poorly fitted or top-dose-only effect, or effect the other way, or a change in a side signal; inactive = flat fitted curve, though single readings scatter; the % refers to the signal ratio. A potency beside an inconclusive call is a rough fit, not a confirmed value.

Assay: qHTS Assay to Find Inhibitors of Chronic Active B-Cell Receptor Signaling;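 as to activity change, negative = inhibition: plate controls were basal doxycycline-induced cells for no effect and cells given 10 µM MG132 for full effect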
Conditions: ABC-DLBCL IkBa-CBG/CBR reporter, luminescence ratio (green luciferase fused to IkBa over red control in TMD8 lymphoma cells), 4 h; activity change, negative = inhibition: at 46.1 µM (top of the series) unless noted
Method in brief: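 Concentration-response series (up to 46 uM) were applied to TMD8 dual-reporter cells for 4 h at 37C with doxycycline. Green/red ratio, after filter-overlap correction, defined %Activity; red signal alone was normalised to basal cells and zero luminescence.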
Potency is read from the fitted curve at half-maximal effect.

Compound	activity change, negative = inhibition	Potency
CCNC(=O)CSc1nc2ccccc2c(=O)n1CCCOC(C)C	inconclusive: -101%	
O=C(Nc1ccc(F)cc1)Nc1cccnc1Cl		inconclusive: 20 µM [falling, single point]
Cc1ccc(C(=O)O)cc1NS(=O)(=O)c1ccc2c(c1)oc(=O)n2C	inconclusive: -17.6%	
Cc1cc(C=C2C(=O)c3ccccc3C2=O)c(C)n1-c1ccc(C(=O)O)cc1	inactive: -5.22%	
COc1ccc2cc3cc(C(=O)NCCCN4CCC(C)CC4)oc3nc2c1	inconclusive: -1.37%	
CCOC(=O)c1ccc(NC(=S)NCCc2ccccc2F)cc1		inconclusive: 5.62 µM [falling, partial curve]
Cc1onc(-c2ccccc2Cl)c1C(=O)OCC(=O)N1CCC(C)CC1	inconclusive: 0.0132%	
c1ccc(-n2cnc3cc(NCc4ccncc4)ccc32)cc1		inconclusive: 11.6 µM [falling, partial curve, poor fit]
Cc1cc(C)c(OCC(=O)N2CC=C(c3ccccc3)CC2)c(C)c1	inactive: -0.664%	
C/C(N)=C(/C#N)C(=O)COC(=O)c1ccccc1Oc1ccccc1		inconclusive: 35.5 µM [falling, single point]
CC(C)c1ccc(C(C)NC(=S)NC2CCCCC2)cc1 (stereo not given)	inconclusive: -5.53%	
Cc1cccc(NC(=O)CCc2ccc(C)o2)c1		inconclusive: 4.61 µM [falling, single point]
CN1CCN(C(=O)C2=C[C@H](c3coc4ccccc4c3=O)C[C@H](OCCCCO)O2)CC1	inconclusive: 7.28%	
CC[C@@]1(C(=O)OC)N[C@H](CN(C)C(=O)c2ccc(F)cc2)[C@@H]2C(=O)N(C)C(=O)[C@@H]21	inactive: 1.02%	
O=C(NCc1ccccc1)C(=O)c1cn(CC(=O)N2CCOCC2)c2ccccc12		inconclusive: 17.8 µM [falling, partial curve]
CCOC(=O)c1sc(-c2ccccn2)nc1C	inconclusive: 9.76%	
O=C(CCCCCNC(=O)c1ccccc1)N/N=C/c1ccc(O)cc1O		inconclusive: 29.1 µM [falling, single point]
CCOc1ccc(S(=O)(=O)N2CCN(c3ccc(C)cc3C)CC2)cc1	inactive: 18.5%	
O=C(Nc1ccccn1)c1ccc(Cl)s1	inconclusive: -5.68%	
COc1ccc(NC(=O)C2=C(C)NC(=O)NC2c2cccc(OC)c2OC)c(OC)c1 (stereo not given)	inconclusive: 0.783%	
COc1ccc(C2=NCCn3nc4ccccc4c32)cc1	inconclusive: -0.278%	
CCOc1ncccc1C(=O)N1CCN(c2cccc(C)c2C)CC1		inconclusive: 5.62 µM [falling, partial curve, poor fit]
CC(OC(=O)c1nn(C(C)C)c(=O)c2ccccc12)C(=O)Nc1ncc(Cl)cc1Cl (stereo not given)	inactive: -12.3%	
CCOC(=O)Cc1csc(SCc2cc(=O)oc3cc(O)ccc23)n1		inconclusive: 16.4 µM [falling, single point]
Cc1ccc(CN2CCSc3ccc(C(=O)NCc4ccccn4)cc32)cc1		inconclusive: 12.6 µM [falling, single point]
Cc1nc2ccccc2c2oc(C(=O)NC3CC3)cc12	inconclusive: 11%	
N#Cc1cc2c(nc1SCc1cccnc1)CCCC2		inconclusive: 11.2 µM [falling, partial curve]

Single entries from the list:
`O=C(Nc1ccc(F)cc1)Nc1cccnc1Cl` | Potency: inconclusive: 20 µM [falling, single point]
`CC(C)c1ccc(C(C)NC(=S)NC2CCCCC2)cc1` (stereo not given) | activity change, negative = inhibition: inconclusive: -5.53%

The list continues.

Compound	activity change, negative = inhibition	Potency
COc1cccc(C(=O)O/N=C(\N)c2ccccn2)c1OC		inconclusive: 1 µM [rising, full curve, poor fit]
CCN(CC(O)CON=C1c2ccccc2-c2ccccc21)S(=O)(=O)c1ccc(Cl)cc1 (stereo not given)	inconclusive: -5.2%	
c1ccc(-c2noc(-c3ccccc3-c3ccccc3)n2)cc1		inconclusive: 1.84 µM [rising, full curve, poor fit]
NNC(=S)NCc1ccc2c(c1)OCO2		inconclusive: 23.1 µM [falling, partial curve, poor fit]
O=C(CN1CCC(n2cnc3cc(F)ccc32)CC1)Nc1ccccc1Br	inconclusive: -12.2%	
Cc1ccc(C)c(S(=O)(=O)NCc2ccc(C(=O)NCc3ccccn3)cc2)c1	inconclusive: -12.6%	
Clc1ccc(-c2nnc(SCc3nc4ccccc4s3)o2)cc1	inconclusive: 19.3%	
COc1cc(NC(=O)c2cnc(NCc3ccccc3)nc2C)cc(OC)c1OC	inconclusive: -19.7%	
CCOC(=O)Cc1[nH]nc2c1C(c1ccoc1)C(C#N)=C(N)O2 (stereo not given)		inconclusive: 0.731 µM [falling, partial curve, poor fit]
O=C(O)c1ccc2c(c1)C(=O)N(c1ccc(/C=C/C(=O)c3ccccc3)cc1)C2=O		inconclusive: 22.4 µM [falling, single point]
Cn1c2c(c(=O)n(C)c1=O)C(CC(=O)Nc1ccccc1F)C(=O)N2 (stereo not given)		inconclusive: 0.501 µM [falling, full curve]
Cc1cc(C)c(NC(=O)CS(=O)CC(=O)N2CCN(c3ccc(F)cc3)CC2)c(C)c1 (stereo not given)	inconclusive: 1.13%	
COC(=O)c1cc2c(ccn2-c2ccc(F)cc2)n1CC(C)C		inconclusive: 1.78 µM [rising, full curve, poor fit]
N#CC1(Nc2cccc(Br)c2)C(=O)Nc2ccccc21 (stereo not given)		inconclusive: 11.2 µM [falling, single point]
Cc1cc(=O)oc2cc(OC(C)C(=O)NCc3ccccn3)ccc12 (stereo not given)	inconclusive: 3.02%	
Cc1cc(C)c(OCCCNC2CCCC2)c(Br)c1	inactive: -15.3%	
O=C1CCCCN1CCC(=O)N1CCCC(Nc2ccc(F)c(F)c2)C1 (stereo not given)	inconclusive: -3.56%	
Cc1cccc(/C=N/NC(=O)c2cccc(NC(=O)c3ccccc3)c2)n1	inconclusive: -4.07%	
COc1ccc(-n2c(=S)[nH]c3ncccc3c2=O)cc1	inactive: 9.43%	
CN(C)C(CNc1ccc(S(C)(=O)=O)cc1[N+](=O)[O-])Cc1ccccc1 (stereo not given)	inactive: 18.9%	
N#C/C(=N\Nc1ccc(Cl)cc1)C(=N)N1CCCCCC1	inconclusive: 2.54%	
NC(=O)N1c2ccccc2CC(=O)c2ccccc21	inconclusive: -28.9%	
CN1C(=O)/C(=N\OC(=O)c2cccc3ccccc23)c2ccccc21	inactive: 22.8%	
Cc1c(OCC(=O)N[C@@H](Cc2ccccc2)C(=O)O)ccc2c1oc(=O)c1ccccc12	inconclusive: -20%	
O=C(CSc1nnc(C2CC2)n1C1CC1)c1ccc(F)cc1	inconclusive: -13.8%	
CCOC(=O)N1CCN(C(=O)c2oc(=O)c3ccccc3c2-c2ccc(C)cc2)CC1	inconclusive: -7.68%	
Cc1ccc(Cl)cc1NC(=O)C1CC1c1ccccc1 (stereo not given)	inconclusive: 9.38%	

Fetched by structure from the list above:
Compound	activity change, negative = inhibition	Potency
COc1cccc(C(=O)O/N=C(\N)c2ccccn2)c1OC		inconclusive: 1 µM [rising, full curve, poor fit]
N#C/C(=N\Nc1ccc(Cl)cc1)C(=N)N1CCCCCC1	inconclusive: 2.54%	
NC(=O)N1c2ccccc2CC(=O)c2ccccc21	inconclusive: -28.9%	

Further compounds follow:

Compound	activity change, negative = inhibition	Potency
O=C(Nc1ccc(-c2cnco2)cc1)c1ccc(F)cc1F		inconclusive: 31.6 µM [rising, single point]
CC1CCN(S(=O)(=O)c2cc(F)ccc2CN2C(=O)c3cccnc3C2=O)CC1	inactive: -0.418%	
CCOc1ccc(-c2nnc(-c3ccccc3)o2)cc1		inconclusive: 18.4 µM [falling, partial curve]
COc1ccc2[nH]c(O)c(N=NC(=O)c3ccc(NS(=O)(=O)c4cccs4)cc3)c2c1	inactive: -0.656%	
O=C(COc1ccc(Br)cc1Br)NC1CCCC1		inconclusive: 35.5 µM [falling, single point]
Nc1cc(OC(=O)c2ccc(F)cc2)nn1S(=O)(=O)c1ccccc1		inconclusive: 25.1 µM [falling, single point]
COc1cccc(OCC(=O)NC2CC(=O)N(c3cccc(OC)c3)C2)c1 (stereo not given)	inconclusive: 2.01%	
CC1(C)CC(=O)c2cc(C(=O)O)c(=O)n(-c3ccccc3)c2C1	inactive: 11.3%	
COc1cccc2cc(C(=O)CS(=O)(=O)c3ccc(C)cc3)c(=O)oc12	inconclusive: -0.282%	
Cc1ccc2nc(NC(=O)C3CCCN(S(=O)(=O)c4cnc[nH]4)C3)sc2c1 (stereo not given)		inconclusive: 3.26 µM [falling, partial curve]
CCN(CC(=O)Nc1ccc2c(c1)OCCO2)CC(=O)Nc1ccc(C)c(S(=O)(=O)N(C)C)c1	inactive: -7.03%	
Cc1ccccc1N(C(=O)c1csnn1)C(C(=O)NC(C)(C)C)c1ccncc1 (stereo not given)	inconclusive: -3.8%	
Oc1ccccc1C1CCCCC1c1ccccc1 (stereo not given)	inconclusive: 8.47%	
COc1ccc(C)cc1NCc1ccc([N+](=O)[O-])cc1	inactive: 1.92%	
Cc1ccc2nc(N(CCCN(C)C)C(=O)c3ccc4ncsc4c3)sc2c1		inconclusive: 28.2 µM [falling, partial curve]
CC(=O)c1cccc(NC(=O)Cn2nc(-c3ccc(Cl)cc3)ccc2=O)c1	inactive: 10.5%	
O=C(O)c1ccc(N/N=C/c2cn(Cc3ccccc3F)c3ccccc23)cc1	inconclusive: 13%	
COc1ccc([N+](=O)[O-])cc1/C=N/NC(=O)CNC(=O)c1cccc(F)c1	inactive: -0.285%	
COc1ccccc1NC1=C(Cl)C(=O)OC1OC(=O)c1ccco1 (stereo not given)	inconclusive: -18.1%	
CCOC(=O)c1c(C)n(C)c2cc(CN(C)C)c(O)c(S(=O)(=O)c3ccccc3)c12	inconclusive: -2.67%	
Cc1ccc(C2NC(=NCc3ccccc3)Nc3nc(C)cc(=O)n32)cc1 (stereo not given)	inconclusive: 17.1%	
CC(=O)c1ccccc1OCCOCCOc1ccccc1C(C)=O	inactive: -0.955%	
COCCOC(=O)c1ccc(NC(=O)COc2ccc([N+](=O)[O-])cc2)cc1	inactive: -1.02%	
CCOc1ccc(/C=N/NC(=O)Nc2ccccc2)cc1	inconclusive: 2.9%	
Cc1ccc(C(=O)CN(C(=O)c2ccc(Cl)c(Cl)c2)N2C(=O)C3CCCCC3C2=O)cc1C (stereo not given)	inconclusive: 0.569%	
CS(=O)(=O)N1CCN(C(=O)c2ccc(-c3ccccc3)cc2)CC1	inconclusive: 1.93%	
